Assay results published in article PMC4737497.
These are yes or no findings as the source states them, for the method shown. Binding seen in cells or lysates may run through a third protein. Some results given as binding are weak or reduced against the parent protein; the word gives no strength.

Sequences of proteins named here, by UniProt entry; tags and fusion partners are left off.
UniProt Q9UKB1: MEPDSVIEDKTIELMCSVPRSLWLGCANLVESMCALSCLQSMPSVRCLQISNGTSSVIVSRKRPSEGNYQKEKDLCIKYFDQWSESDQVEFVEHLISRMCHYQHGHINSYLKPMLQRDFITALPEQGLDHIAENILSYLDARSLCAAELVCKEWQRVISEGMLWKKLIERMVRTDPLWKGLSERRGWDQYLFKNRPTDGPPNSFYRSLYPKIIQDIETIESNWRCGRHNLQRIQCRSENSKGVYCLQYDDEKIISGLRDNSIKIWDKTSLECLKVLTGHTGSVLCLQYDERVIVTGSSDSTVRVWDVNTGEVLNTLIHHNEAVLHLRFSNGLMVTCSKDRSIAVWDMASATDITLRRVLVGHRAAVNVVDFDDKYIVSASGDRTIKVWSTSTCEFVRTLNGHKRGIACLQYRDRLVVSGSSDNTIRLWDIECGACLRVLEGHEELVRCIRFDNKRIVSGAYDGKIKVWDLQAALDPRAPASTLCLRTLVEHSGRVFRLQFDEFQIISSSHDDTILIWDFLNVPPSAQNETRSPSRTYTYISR
UniProt P21698: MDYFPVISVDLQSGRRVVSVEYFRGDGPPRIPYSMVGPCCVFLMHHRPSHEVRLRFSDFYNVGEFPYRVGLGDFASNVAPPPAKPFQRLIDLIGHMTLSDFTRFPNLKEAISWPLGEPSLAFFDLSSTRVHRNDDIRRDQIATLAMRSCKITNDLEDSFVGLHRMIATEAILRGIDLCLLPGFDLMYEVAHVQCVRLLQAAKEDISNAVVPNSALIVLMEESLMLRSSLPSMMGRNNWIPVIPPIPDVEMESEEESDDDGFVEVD

Molecular target: HA-tagged FBXW11 (pcDNA3-HA-FBXW11) (UniProt Q9UKB1)
Experiment: co-IP

“NSs protein of Rift Valley fever virus with a C-terminal V5 tag, expressed from recombinant MP-12 virus (rMP-12-NSs-V5) (from UniProt P21698 1-265)” was tested, and the binding was “binds”.
